In US6660310B2, “Method to infuse fresh fruits and vegetables with an agent” (American Moxie LLC, priority 2000, dated 2003):

Tests used:
Tomato = assay: Experiment 5: infusion of various agents, amount infused; set-up: species or system cherry tomatoes; conditions: bath 2% agent, 0.001% Tween 20, 30 kPa for 10 minutes, Ca++, Zn++ by AA Spectroscopy after subtraction of initial levels
Grape = assay: as above; set-up: species or system seedless grapes; conditions: bath 2% agent, 0.001% Tween 20, 30 kPa for 10 minutes, Ca++, Zn++ by AA Spectroscopy after subtraction of initial levels

SMILES | infused agent per gram fresh weight (Tomato) | infused agent per gram fresh weight (Grape)
[Ca+2].[Cl-].[Cl-] [Ca++, Calcium chloride] | 419 μg per gram fresh weight | 344 μg per gram fresh weight
C[N+]1(C)[C@@H]2C[C@@H](OC(=O)[C@H](CO)c3ccccc3)C[C@H]1[C@@H]1O[C@@H]12 [Methylscopolamine, methylscopolamine] | 289 μg per gram fresh weight | 382 μg per gram fresh weight
[Cl-].[Cl-].[Zn+2] [Zn++, zinc chloride] | 384 μg per gram fresh weight | 415 μg per gram fresh weight
